Experimental data as given in PubChem BioAssay AID587 (National Center for Advancing Translational Sciences (NCATS), 2007).
Several values for one entry are separate records, joined by “and”; a condition that tells them apart may be missing. Identical values can stand only once. Hit rate of the full screen: of about 59,000 compounds, about 35 (0.06%) were called active. The inconclusive results got no clear call from the source; some entries with a clear call stand among them for comparison. Cut-off read from the data, not from the text of the source: active = max dye-equivalent concentration above about 10 nM; inconclusive = between about 1.1 nM and that limit; inactive = weaker than that.

Test: qHTS Assay for Spectroscopic Profiling in Texas Red Spectral Region
Conditions: Compound fluorescence, Texas Red channel, 547/618 nm; hits give high values
In short: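 Compound titrations in 100 mM Tris pH 8.0 were incubated 15 min at room temperature and read at 547 nm excitation / 618 nm emission. Texas Red six-point standard curve on each plate converted fluorescence to dye-equivalent concentration.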

| SMILES | max dye-equivalent concentration |
| --- | --- |
| Cc1nnc(SCC(=O)c2cc(C)n(-c3ccc4c(c3)OCO4)c2C)s1 | inconclusive: 1.9e-09 M |
| O=S(=O)(NC1CC1)c1ccc(S(=O)(=O)N2CCc3ccccc32)cc1 | inconclusive: 1.7e-09 M |
| CCCOc1cc(N)ccc1C(=O)OCCN(CC)CC | inactive |
| CCSc1nnc(NC(=O)CSc2nc3c(c(=O)n2CC)SC(C)C3)s1 (stereo unspecified) | inconclusive: 1.1e-09 M |
| CSCC[C@H](NC(=O)Nc1ccc(C)cc1)C(=O)O | inconclusive: 2e-09 M |
| COc1ccc(-n2c(=O)c(-c3cc(F)cc(F)c3)nc3cnc(N4CCOCC4)nc32)cc1 | inconclusive: 1.1e-09 M |
| CC(C)C(c1nnnn1Cc1ccc(F)cc1)N1CCN(Cc2ccc3c(c2)OCO3)CC1 (stereo unspecified) | inconclusive: 1.7e-09 M |
| CCCCC(=O)Nc1cccc(NC(=O)c2ccc3c(c2)OCO3)c1 | inconclusive: 3.5e-09 M |
| CCN(CC)S(=O)(=O)c1ccc(-c2nnc(SCC(=O)N3CCOCC3)o2)cc1 | inconclusive: 1.7e-09 M |
| CC(C)c1nnc(SCC(=O)NCc2ccco2)n1C | inconclusive: 1.6e-09 M |
| Cc1cccc(OCc2nnc(SCC(=O)Nc3sc(C)c(C)c3C#N)n2C)c1 | inconclusive: 1.3e-09 M |
| CCOC(=O)N1CCN(c2c(NCCCN(CC)Cc3ccccc3)c(=O)c2=O)CC1 | inconclusive: 1.3e-09 M |
| Cc1sc(NC(=O)CSc2nnnn2C2CCCC2)c(C#N)c1C | inconclusive: 1.6e-09 M |
| CCCCc1cc(=O)oc2c(CN(C)C)c(O)ccc12 | inactive |
| CCOc1ccc(-c2nnc(NC(=O)CCCOc3cccc(C)c3)o2)cc1 | inconclusive: 1.1e-09 M |
| N#Cc1c(/N=C/c2ccco2)sc2c1CCC2 | inconclusive: 1.2e-09 M |
| CC(C)n1c(N2CCN(CC(=O)NCc3cccs3)CC2)nc2ccccc21 | inconclusive: 1.1e-09 M |
| O=C(Oc1ccc(Br)cc1)C1CC(=O)N(c2ccc(F)cc2)C1 (stereo unspecified) | inconclusive: 1.1e-09 M |
| CC(C)N(C#N)c1nc(N2CCOCC2)nc(N2CCOCC2)n1 | inconclusive: 1.4e-09 M |
| c1c2c(cc3sc(N4CCCCC4)nc13)OCCO2 | inconclusive: 1.1e-09 M |
| CCNc1nc(N)nc(Oc2ccc(OCC)nn2)n1 | inconclusive: 1.4e-09 M |
| CC(=O)Nc1cccc2c1C(=O)NC2=O | inconclusive: 1.5e-09 M |
| CCC(C)NC(=O)CSc1nc2ccccc2c(=O)n1CCCC(=O)NCC1CCCO1 (stereo unspecified) | inconclusive: 1.3e-09 M |

| SMILES | max dye-equivalent concentration |
| --- | --- |
| O=C(NCc1cccnc1)c1ccc(CS(=O)(=O)c2ccc(Cl)cc2)o1 | inconclusive: 3e-09 M |
| COc1cc(=O)n(C)c2cc(N(C)C)ccc12 | inconclusive: 1.3e-09 M |
| CCOC(=O)C1=C(C)NC(C)=C(C(=O)OC)[C@H]1c1cccc([N+](=O)[O-])c1 | inconclusive: 1.3e-09 M |
| Oc1ccccc1C(Sc1nc2ccccc2s1)Sc1nc2ccccc2s1 | inactive |
| CCn1c(SCC(=O)NC2CCCCC2)nnc1-c1cccs1 | inconclusive: 1.4e-09 M |
| N#Cc1c(-c2ccccc2)no[n+]1[O-] | inactive |
| Nc1nc(Cn2nnc(-c3ccccc3F)n2)nc(N2CCOCC2)n1 | inactive |
| Cc1cc(NC(=O)CSc2nnc(-c3ccc(Cl)s3)o2)no1 | inconclusive: 1.3e-09 M |
| CC1Cn2c(nnc2-c2cccs2)S1 (stereo unspecified) | inactive |
| COC(=O)C(CCSC)NC(=O)CNC(=O)C1CCCCC1 (stereo unspecified) | inconclusive: 2.1e-09 M |
| CN(C)C(CNC(=O)CCCc1c[nH]c2ccccc12)c1ccco1 (stereo unspecified) | inconclusive: 1.1e-09 M |
| CCCNC[C@H](O)COc1ccccc1C(=O)CCc1ccccc1 | inactive |
| CON(C)c1nc(Oc2ccc(=O)[nH]n2)nc(N(C)C)n1 | inconclusive: 1.1e-09 M |
| CN1CCC(=C2c3ccccc3C=Cc3ccccc32)CC1 | inconclusive: 1.5e-09 M and inconclusive: 1.1e-09 M |
| FC(F)(F)c1ccccc1-c1cc(NCc2cccs2)ncn1 | inactive |
| O=C(CCS(=O)(=O)c1cccc2nonc12)N1CCOCC1 | inconclusive: 1.1e-09 M |
| CCn1cc(Br)c(C(=O)NCc2ccco2)n1 | inconclusive: 1.9e-09 M |
| O=C(O)/C=C\C(=O)N1Cc2cc3ccccc3nc2C1 | inactive |
| O=C1CCCN1CN(C(=O)c1ccc2c(c1)OCO2)c1cccc(Cl)c1 | inconclusive: 1.4e-09 M |
| CC1Oc2ccccc2N(CC(=O)N2CCCc3ccccc32)C1=O (stereo unspecified) | inconclusive: 2.5e-09 M |
| CCOC(=O)C1=C(C)OC(N)=C(C#N)C1c1ccsc1 (stereo unspecified) | inconclusive: 1.4e-09 M |
| O=C(CCc1ccccc1)Nc1nc2n(n1)C(c1ccccc1)CC(=O)N2 (stereo unspecified) | inconclusive: 1.4e-09 M |
| C=CCOc1cccc(C2/C(=C(\O)c3ccc(F)cc3)C(=O)C(=O)N2CCN(C)C)c1 (stereo unspecified) | inconclusive: 1.2e-09 M |

| SMILES | max dye-equivalent concentration |
| --- | --- |
| C=CCNC(=O)CC(C)C(CCCCC)C(=O)O (stereo unspecified) | inconclusive: 1.4e-09 M |
| O=c1c(-c2cccs2)nc2cncnc2n1Cc1ccc(F)cc1 | inactive |
| CCOCCc1nnc(NC(=O)c2cccs2)s1 | inconclusive: 2.3e-09 M |
| CCOC(=O)c1sc2ncn(C(C)C(=O)OC)c(=O)c2c1C (stereo unspecified) | inconclusive: 1.1e-09 M |
| O=C(NC1CCN(C(=O)NCc2ccccc2)CC1)c1ccco1 | inconclusive: 1.2e-09 M |
| CCOc1ccccc1-c1nc(-c2cc3ccccc3nc2OC)no1 | inconclusive: 1.1e-09 M |
| COc1ccc(-c2nn(-c3ccccc3)cc2C(=O)NCCCn2ccnc2)cc1 | inconclusive: 1.9e-09 M |
| O=C(NCc1ccco1)c1cnn2c(C(F)(F)F)cc(-c3ccco3)nc12 | inactive |
| CC(CCc1ccccc1)NC(=O)c1ccc(Br)o1 (stereo unspecified) | inactive |
| Cc1cc(NC(=O)CSc2nc(-c3cccs3)cc(C(F)(F)F)n2)no1 | inconclusive: 1.2e-09 M |
| Cn1c(CN2CCCC2)nc2cc(NC(=O)Nc3ccccc3)ccc21 | inconclusive: 1.6e-09 M |
| Cc1cc(C2=CC(C)(c3cc(C)oc3C)Nc3nc(C(F)(F)F)nn32)c(C)o1 (stereo unspecified) | inconclusive: 1.7e-09 M |
| CCS(=O)(=O)n1nc(-c2ccccc2)nc1SCc1ccccc1 | inconclusive: 1.4e-09 M |
| CC1(C)CC(=O)C(C=Nc2ccc(O)cc2)=C(O)C1 | inconclusive: 1.1e-09 M |
| O=c1[nH]c2cc3c(cc2cc1CN(CC1CCCO1)S(=O)(=O)c1ccc(Cl)cc1)OCCO3 (stereo unspecified) | inconclusive: 1.2e-09 M |
| N[C@@H](CSCc1ccccc1)C(=O)O | inactive |
| O=[n+]1c2c(n([O-])c3cc(F)c(N4CCCC4)cc31)CCC2 | inconclusive: 1.9e-09 M |
| Cc1ccc(C(C(=O)NCc2ccc(F)cc2)N(C(=O)c2csnn2)C2CC2)o1 (stereo unspecified) | inconclusive: 1.3e-09 M |
| CCOc1ccc(-c2nc(-c3ccccc3C)no2)cc1 | inconclusive: 1.8e-09 M |
| COc1ccc(Nc2oc(COc3cccc(C)c3)nc2C#N)cc1 | inconclusive: 1.3e-09 M |
| CC(C)n1c(NCc2ccc(N(C)C)cc2)nc2ccccc21 | inconclusive: 1.4e-09 M |
| Cc1nc2ncnn2c(C)c1CCC(=O)N1CCc2ccccc21 | inconclusive: 1.1e-09 M |
| COc1cccc(NC(=O)N2CCN(Cc3nc4ccccc4c(=O)[nH]3)CC2)c1 | inconclusive: 1.7e-09 M |

| SMILES | max dye-equivalent concentration |
| --- | --- |
| CCNC(=O)CC1SC(=Nc2cccc(Cl)c2C)N(C)C1=O (stereo unspecified) | inconclusive: 1.1e-09 M |
| CC(C)c1ccc(-c2nc(N3CCCC3)nc3n[nH]c(N)c23)cc1 | inconclusive: 2.7e-09 M |
| CCOC(=O)N1CCC(N(CCCOC)C(=O)Nc2cccc(OC)c2)CC1 | inconclusive: 2.2e-09 M |
| CN(C)C(=O)Cn1c(SCC(=O)N2CCCc3ccccc32)nc2ccccc21 | inconclusive: 1.5e-09 M |
| NNCCc1ccccc1 | inconclusive: 2.2e-09 M |
| O=C(NCc1ccc(N2CCCC2=O)cc1)Nc1ccccc1 | inconclusive: 1.1e-09 M |
| CCC(=O)n1nc(-c2ccco2)nc1SCc1ccccc1 | inconclusive: 2.5e-09 M |
| CCOC(=O)C1CCN(C(=O)CN2C(=O)C(CC)Oc3ccccc32)CC1 (stereo unspecified) | inconclusive: 1.4e-09 M |
| O=C(O)C[C@@H](C(=O)O)c1ccccc1[N+](=O)[O-] | inactive |
| Cc1cc2c3c(c1C)C1(C(=O)N3C(C)(C)CC2C)C(C#N)=C(N)Oc2n[nH]c(C)c21 (stereo unspecified) | inconclusive: 1.2e-09 M |
| Cn1c(SCC(=O)NCc2ccc(F)cc2)nc2ccccc21 | inconclusive: 1.4e-09 M |
| CCOC(=O)C1=C(C)OC(N)=C(C#N)C1c1cc(OC)c2c(c1)OCO2 (stereo unspecified) | inactive |
| CS(=O)(=O)N(CC(=O)NCCC1=CCCCC1)c1ccc2c(c1)OCO2 | inconclusive: 1.3e-09 M |
| CCc1ccccc1NC(=O)CC(O)(C(=O)OC)C(F)(F)F (stereo unspecified) | inconclusive: 1.2e-09 M |
| COc1ccc(CCNC(=O)c2ccn[nH]2)cc1OC | inconclusive: 1.3e-09 M |
| O=C(Nc1ccccn1)NC12CC3CC(CC(C3)C1)C2 | inactive |
| Cc1ccc2cc(C#N)c(SCC(=O)NCC3CCCO3)nc2c1C (stereo unspecified) | inconclusive: 1.6e-09 M |
| Cc1nn(C)cc1C(N)=O | inconclusive: 1.1e-09 M |
| CCCN(CCC)C(=O)CSc1nc2ccccc2c(=O)n1C1CCCC1 | inconclusive: 1.2e-09 M |
| CC1CCC(C(C)C)C(OC(=O)COC(=O)c2ccc(=O)[nH]c2)C1 (stereo unspecified) | inconclusive: 1.8e-09 M |
| CC(C)CCOCC(=O)Nc1cccc(C(=O)O)c1 | inconclusive: 1.2e-09 M |
| CCOc1ccccc1NC(=O)c1ccccc1-c1nc(-c2ccccc2)no1 | inconclusive: 1.2e-09 M |
